According to the supplement of paper PMC10849652:
Some of the results follow.

Amino acid sequences for entries named in this document (tags omitted). A change or cut given only in a name is not applied to a line headed by its entry.
UniProt Q7Z4Q2: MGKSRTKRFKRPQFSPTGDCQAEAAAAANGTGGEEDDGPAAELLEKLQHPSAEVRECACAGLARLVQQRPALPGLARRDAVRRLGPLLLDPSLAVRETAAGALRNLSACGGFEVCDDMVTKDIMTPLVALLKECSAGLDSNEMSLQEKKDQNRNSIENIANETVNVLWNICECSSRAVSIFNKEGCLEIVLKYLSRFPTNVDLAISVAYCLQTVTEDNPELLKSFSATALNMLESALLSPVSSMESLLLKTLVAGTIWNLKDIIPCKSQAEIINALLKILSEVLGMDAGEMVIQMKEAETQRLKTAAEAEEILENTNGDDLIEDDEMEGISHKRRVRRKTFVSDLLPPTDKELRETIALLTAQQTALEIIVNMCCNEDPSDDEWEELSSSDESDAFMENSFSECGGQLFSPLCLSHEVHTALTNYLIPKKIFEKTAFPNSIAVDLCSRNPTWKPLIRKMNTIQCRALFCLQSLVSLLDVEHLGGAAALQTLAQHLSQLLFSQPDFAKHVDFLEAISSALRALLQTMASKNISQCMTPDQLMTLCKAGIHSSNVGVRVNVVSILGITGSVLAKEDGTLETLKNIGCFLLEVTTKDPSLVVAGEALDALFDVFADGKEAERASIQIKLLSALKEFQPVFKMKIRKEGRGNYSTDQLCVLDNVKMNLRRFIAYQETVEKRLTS
UniProt P29083: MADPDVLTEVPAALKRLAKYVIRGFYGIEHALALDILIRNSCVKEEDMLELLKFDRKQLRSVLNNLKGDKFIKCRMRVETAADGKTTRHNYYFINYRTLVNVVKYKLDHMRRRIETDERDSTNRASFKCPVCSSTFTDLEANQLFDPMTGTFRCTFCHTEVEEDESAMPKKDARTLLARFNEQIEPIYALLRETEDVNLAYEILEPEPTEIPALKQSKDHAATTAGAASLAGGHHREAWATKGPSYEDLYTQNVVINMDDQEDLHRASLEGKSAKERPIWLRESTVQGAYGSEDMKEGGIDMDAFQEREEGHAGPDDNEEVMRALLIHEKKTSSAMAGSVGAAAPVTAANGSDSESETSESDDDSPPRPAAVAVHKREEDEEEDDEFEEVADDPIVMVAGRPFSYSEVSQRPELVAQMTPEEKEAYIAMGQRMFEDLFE
UniProt Q16774: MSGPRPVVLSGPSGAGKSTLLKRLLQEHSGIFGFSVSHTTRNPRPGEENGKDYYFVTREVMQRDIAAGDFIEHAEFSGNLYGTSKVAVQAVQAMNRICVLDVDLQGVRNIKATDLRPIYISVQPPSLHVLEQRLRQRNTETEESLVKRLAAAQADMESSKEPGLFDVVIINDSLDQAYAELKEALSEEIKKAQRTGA
UniProt Q00403, whole entry, looked up: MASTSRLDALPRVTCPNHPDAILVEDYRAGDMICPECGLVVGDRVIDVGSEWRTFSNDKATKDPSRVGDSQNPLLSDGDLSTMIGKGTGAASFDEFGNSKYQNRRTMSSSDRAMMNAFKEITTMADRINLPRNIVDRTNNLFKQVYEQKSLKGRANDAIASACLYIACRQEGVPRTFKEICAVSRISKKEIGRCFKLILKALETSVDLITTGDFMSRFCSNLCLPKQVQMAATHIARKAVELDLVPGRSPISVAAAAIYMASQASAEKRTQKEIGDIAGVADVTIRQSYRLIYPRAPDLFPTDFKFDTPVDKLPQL
UniProt Q9P2D3: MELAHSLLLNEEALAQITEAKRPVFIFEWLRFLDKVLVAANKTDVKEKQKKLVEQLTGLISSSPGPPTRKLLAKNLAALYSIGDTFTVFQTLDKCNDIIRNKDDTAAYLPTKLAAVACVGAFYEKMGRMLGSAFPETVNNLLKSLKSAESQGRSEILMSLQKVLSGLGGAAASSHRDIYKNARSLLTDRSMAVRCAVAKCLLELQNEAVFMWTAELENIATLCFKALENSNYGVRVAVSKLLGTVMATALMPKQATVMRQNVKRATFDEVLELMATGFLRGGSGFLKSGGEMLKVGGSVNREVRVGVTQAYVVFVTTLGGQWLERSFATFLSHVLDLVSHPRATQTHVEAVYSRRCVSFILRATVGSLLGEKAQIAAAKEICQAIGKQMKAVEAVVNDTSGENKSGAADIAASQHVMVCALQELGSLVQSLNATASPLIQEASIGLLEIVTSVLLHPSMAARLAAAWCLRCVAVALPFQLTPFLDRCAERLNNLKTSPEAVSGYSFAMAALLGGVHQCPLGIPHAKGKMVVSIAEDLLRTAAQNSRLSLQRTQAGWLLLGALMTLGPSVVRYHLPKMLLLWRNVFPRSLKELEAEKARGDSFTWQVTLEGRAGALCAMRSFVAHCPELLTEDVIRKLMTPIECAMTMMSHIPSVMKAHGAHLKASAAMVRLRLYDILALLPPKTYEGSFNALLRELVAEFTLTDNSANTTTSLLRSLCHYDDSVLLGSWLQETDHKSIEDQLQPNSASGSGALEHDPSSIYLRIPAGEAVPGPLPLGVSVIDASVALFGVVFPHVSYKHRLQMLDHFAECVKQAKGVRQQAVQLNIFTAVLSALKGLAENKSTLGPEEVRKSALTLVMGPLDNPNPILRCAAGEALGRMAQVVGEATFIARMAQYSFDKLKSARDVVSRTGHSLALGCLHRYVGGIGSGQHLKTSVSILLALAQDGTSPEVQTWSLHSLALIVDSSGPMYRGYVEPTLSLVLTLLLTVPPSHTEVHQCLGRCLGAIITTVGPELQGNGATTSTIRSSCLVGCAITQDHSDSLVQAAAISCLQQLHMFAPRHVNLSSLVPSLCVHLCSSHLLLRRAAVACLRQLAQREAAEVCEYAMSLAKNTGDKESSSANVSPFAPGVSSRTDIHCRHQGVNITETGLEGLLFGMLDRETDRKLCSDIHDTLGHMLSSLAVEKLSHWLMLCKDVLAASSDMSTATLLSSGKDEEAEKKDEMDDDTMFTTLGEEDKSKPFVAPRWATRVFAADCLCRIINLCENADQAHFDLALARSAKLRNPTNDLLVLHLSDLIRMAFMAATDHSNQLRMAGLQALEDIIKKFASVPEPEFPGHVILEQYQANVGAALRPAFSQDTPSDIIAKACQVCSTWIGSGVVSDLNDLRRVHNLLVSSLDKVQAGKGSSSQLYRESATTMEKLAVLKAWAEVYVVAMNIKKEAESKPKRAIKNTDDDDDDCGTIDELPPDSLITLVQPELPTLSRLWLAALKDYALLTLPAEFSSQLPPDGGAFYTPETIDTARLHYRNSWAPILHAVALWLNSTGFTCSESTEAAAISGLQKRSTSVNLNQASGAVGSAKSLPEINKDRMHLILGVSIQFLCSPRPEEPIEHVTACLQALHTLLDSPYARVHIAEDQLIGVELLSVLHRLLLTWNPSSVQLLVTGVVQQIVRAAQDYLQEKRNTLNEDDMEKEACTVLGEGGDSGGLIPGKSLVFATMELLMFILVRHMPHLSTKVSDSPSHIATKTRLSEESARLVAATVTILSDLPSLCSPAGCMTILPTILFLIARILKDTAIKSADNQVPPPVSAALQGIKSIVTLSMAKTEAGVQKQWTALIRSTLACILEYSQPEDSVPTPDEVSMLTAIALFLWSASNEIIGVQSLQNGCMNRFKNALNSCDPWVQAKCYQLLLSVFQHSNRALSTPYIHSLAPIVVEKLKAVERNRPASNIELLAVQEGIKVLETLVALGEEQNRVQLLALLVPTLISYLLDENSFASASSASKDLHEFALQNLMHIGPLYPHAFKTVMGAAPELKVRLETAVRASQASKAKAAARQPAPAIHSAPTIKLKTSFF
UniProt O00165, whole entry, looked up: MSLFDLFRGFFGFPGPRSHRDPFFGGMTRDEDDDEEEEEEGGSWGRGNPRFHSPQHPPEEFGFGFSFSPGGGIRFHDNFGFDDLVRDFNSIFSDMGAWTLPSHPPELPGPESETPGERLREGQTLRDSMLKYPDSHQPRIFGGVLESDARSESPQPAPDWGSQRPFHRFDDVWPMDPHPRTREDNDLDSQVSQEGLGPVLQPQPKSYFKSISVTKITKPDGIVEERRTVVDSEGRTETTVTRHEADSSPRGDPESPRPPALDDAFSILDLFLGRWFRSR
UniProt P07686: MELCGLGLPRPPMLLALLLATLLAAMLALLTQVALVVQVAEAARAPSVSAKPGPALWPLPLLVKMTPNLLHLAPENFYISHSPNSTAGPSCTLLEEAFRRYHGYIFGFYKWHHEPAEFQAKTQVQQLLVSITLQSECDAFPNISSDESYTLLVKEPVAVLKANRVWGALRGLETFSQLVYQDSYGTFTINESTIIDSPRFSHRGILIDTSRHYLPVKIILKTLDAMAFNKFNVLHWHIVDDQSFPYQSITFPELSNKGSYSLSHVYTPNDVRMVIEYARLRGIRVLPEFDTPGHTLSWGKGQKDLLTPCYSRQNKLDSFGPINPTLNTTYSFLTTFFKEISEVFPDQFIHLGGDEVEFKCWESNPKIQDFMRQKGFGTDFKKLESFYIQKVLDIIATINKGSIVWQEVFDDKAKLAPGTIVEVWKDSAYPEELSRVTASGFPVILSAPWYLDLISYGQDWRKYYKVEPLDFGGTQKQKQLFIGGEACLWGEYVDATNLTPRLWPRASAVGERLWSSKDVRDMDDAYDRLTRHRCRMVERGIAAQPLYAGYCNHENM
UniProt P06865: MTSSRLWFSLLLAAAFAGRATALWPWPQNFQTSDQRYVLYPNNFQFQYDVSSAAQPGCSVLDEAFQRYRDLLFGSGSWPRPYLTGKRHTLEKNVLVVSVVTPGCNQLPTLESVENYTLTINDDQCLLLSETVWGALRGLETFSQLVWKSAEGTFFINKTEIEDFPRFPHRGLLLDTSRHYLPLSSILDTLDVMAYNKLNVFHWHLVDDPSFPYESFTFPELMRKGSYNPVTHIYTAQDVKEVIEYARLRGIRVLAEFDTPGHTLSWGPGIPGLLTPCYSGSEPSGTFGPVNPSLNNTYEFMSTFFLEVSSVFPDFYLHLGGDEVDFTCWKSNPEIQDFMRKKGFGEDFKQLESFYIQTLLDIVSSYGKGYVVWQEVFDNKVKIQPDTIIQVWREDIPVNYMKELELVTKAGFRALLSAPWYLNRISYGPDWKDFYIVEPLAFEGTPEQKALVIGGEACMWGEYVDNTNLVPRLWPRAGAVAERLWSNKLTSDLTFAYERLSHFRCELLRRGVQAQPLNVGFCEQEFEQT
UniProt Q92664: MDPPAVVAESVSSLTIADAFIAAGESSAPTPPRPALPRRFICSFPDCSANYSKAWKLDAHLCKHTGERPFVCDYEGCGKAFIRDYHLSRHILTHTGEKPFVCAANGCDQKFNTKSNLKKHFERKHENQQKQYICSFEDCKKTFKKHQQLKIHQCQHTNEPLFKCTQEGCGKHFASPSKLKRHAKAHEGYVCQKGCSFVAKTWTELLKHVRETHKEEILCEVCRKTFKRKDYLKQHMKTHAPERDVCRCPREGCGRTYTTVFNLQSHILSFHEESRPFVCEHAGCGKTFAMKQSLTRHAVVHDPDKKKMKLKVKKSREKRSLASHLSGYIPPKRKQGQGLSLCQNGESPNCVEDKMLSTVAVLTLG
UniProt Q8N442: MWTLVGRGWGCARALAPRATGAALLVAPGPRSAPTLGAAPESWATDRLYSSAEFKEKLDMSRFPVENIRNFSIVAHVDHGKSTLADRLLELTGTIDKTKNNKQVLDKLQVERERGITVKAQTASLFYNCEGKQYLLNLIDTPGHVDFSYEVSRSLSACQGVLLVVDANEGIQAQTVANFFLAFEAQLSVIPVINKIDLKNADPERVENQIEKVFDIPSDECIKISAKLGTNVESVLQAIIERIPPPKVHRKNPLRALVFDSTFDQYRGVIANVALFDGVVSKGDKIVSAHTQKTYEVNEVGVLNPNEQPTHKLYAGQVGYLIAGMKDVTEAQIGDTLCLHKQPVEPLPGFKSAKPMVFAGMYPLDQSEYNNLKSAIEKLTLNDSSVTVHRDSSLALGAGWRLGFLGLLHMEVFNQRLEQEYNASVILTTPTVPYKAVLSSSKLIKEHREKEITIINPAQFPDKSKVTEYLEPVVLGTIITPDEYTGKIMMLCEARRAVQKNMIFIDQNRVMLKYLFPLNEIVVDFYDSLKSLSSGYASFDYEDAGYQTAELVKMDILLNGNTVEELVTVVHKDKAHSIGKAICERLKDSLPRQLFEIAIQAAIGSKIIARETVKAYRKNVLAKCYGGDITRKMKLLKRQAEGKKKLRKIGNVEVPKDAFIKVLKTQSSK
UniProt P69905, whole entry, looked up: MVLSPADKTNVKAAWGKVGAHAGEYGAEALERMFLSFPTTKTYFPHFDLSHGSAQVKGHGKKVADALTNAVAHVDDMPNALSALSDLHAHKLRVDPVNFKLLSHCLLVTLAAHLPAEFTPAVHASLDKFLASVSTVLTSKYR
UniProt P30711: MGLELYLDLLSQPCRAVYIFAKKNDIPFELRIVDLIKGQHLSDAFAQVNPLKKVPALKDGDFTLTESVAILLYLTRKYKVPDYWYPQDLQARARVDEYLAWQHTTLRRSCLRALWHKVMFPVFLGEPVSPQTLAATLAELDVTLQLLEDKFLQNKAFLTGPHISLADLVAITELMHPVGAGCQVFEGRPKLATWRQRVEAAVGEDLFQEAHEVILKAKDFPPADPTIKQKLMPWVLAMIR

Columns and labels:
Test in all cases: log2 fold change, soluble protein after heating vs DMSO (PISA); higher = thermal stabilisation; K562 cells, 10 uM, 30 min; active = over 0.2 and 3.5 SD of the protein, either way, in both replicates (recomputed)
[1] = compound: CC[C@@H]1C(=O)N(C)c2cnc(Nc3ccc(C(=O)NC4CCN(C)CC4)cc3OC)nc2N1C1CCCC1
Method in brief: (§1)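 Soluble protein was defined as the supernatant after 21,000xg for 90 min. It came from K562 cells at 2×10^6 cells/mL given 10 μM compound for 30 min, heated in aliquots for 3 min across 48°C-58°C, pooled, and extracted in PBS with 0.5% NP-40 at 4°C, and was quantified by TMTpro 16plex LC-MS/MS with equalised channel sums. Thermal stability against control samples, from duplicates, is reported as log2 fold change.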

[2] = compound: CC[C@@H]1C(=O)N(C)c2cnc(Nc3ccc(C(=O)N[C@H]4CC[C@H](N5CCN(CC6CC6)CC5)CC4)cc3OC)nc2N1C(C)C [volasertib]
Method in brief: as §1

[3] = compound: CC[C@H](C)N1C=C(C2=C(C=C(C=C21)C3=CN=C(C=C3)N4CCNCC4)C(=O)NCC5=C(C=C(NC5=O)C)C)C
Method in brief: as §1

[4] = compound: CC[C@H](C)[C@@H](C(=O)N[C@@H]([C@@H](C)O)C(=O)N[C@@H](CC(C)C)C(=O)[C@]1(CO1)C)NC(=O)[C@H]([C@@H](C)CC)N(C)C(=O)C [epoxomicin]
Method in brief: as §1

[5] = compound: CCn1cc(-c2ccnc3[nH]c(-c4cccc(CN(C)C)c4)cc23)c(-c2ccc(NC(=O)N(C)C)cc2)n1
Method in brief: as §1

[6] = compound: CN(C)CC(=O)Nc1ccc2[nH]c(=O)c3ccccc3c2c1
Method in brief: as §1

[7] = compound: CN1C2=C(C3=C1C(=O)N(N=C3)CC4=CC(=CC=C4)N)SC(=C2)S(=O)C
Method in brief: as §1

[8] = compound: CN1CCC(CNc2ccc3ncc(-c4cccc(OC(F)(F)F)c4)n3n2)CC1
Method in brief: as §1

[9] = compound: CN1CCN(CCOc2cc(OC3CCOCC3)c3c(Nc4c(Cl)ccc5c4OCO5)ncnc3c2)CC1 [saracatinib]
Method in brief: as §1

[10] = compound: CN1CCN(c2nc(C3=C(c4c[nH]c5ccccc45)C(=O)NC3=O)c3ccccc3n2)CC1 [sotrastaurin]
Method in brief: as §1

[11] = compound: CN1CCc2c(c3ccccc3n2Cc2ccc(C(=O)NO)cc2)C1 [Tubastatin A]
Method in brief: as §1

[12] = compound: CNC(=O)C1=CC=CC=C1NC2=NC(=NC=C2Cl)NC3=C(C=C(C=C3)N4CCOCC4)OC
Method in brief: as §1

[13] = compound: CNC(=O)c1ccc(Nc2ncc(C(F)(F)F)c(NCc3nccnc3N(C)S(C)(=O)=O)n2)cc1 [defactinib]
Method in brief: as §1

[14] = compound: CNCc1ccc(-c2[nH]c3cc(F)cc4c3c2CCNC4=O)cc1 [rucaparib]
Method in brief: as §1

[15] = compound: CNc1nc(-c2ccc3c(N)n[nH]c3c2)cc(N2C[C@@H](C(=O)NC3CCCCC3)CC[C@H]2C)n1
Method in brief: as §1

[16] = compound: COC(=O)N[C@@H](C)CNc1nccc(-c2cn(C(C)C)nc2-c2cc(Cl)cc(NS(C)(=O)=O)c2F)n1 [encorafenib]
Method in brief: as §1

[17] = compound: COC(=O)[C@H](CCSC)NC(=O)C1=C(C=C(C=C1)NC[C@H](CS)N)C2=CC=CC=C2
Method in brief: as §1

[18] = compound: CN1CC[C@H](c2c(O)cc(O)c3c(=O)cc(-c4ccccc4Cl)oc23)[C@H](O)C1 [alvocidib]
Method in brief: as §1

[19] = compound: CCn1c(C(=O)N(C2CC2)C2CC2)cc2c3c(ncn3C)c(Nc3cc(C)n(C)n3)nc21
Method in brief: as §1

[20] = compound: CN(CCOC1=CC=C(C=C1)C[C@H]2C(=O)NC(=O)S2)C3=CC=CC=N3 (racemic) [rosiglitazone]
Method in brief: as §1

Row | Target | log2 fold change [1] | log2 fold change [2] | log2 fold change [3] | log2 fold change [4] | log2 fold change [5] | log2 fold change [6] | log2 fold change [7] | log2 fold change [8] | log2 fold change [9] | log2 fold change [10] | log2 fold change [11] | log2 fold change [12] | log2 fold change [13] | log2 fold change [14] | log2 fold change [15] | log2 fold change [16] | log2 fold change [17] | log2 fold change [18] | log2 fold change [19] | log2 fold change [20]
1 | HEATR3 (UniProt Q7Z4Q2) | inactive: -0.308 | active: -0.36 | inactive: 0.033 | inactive: 0.039 | inactive: 0.276 | inactive: 0.058 | inactive: 0.007 | inactive: -0.34 | inactive: -0.045 | inactive: -0.167 | inactive: 0.109 | inactive: -0.054 | inactive: -0.048 | inactive: 0.081 | inactive: -0.006 | inactive: -0.028 | inactive: -0.006 | – | – | –
2 | GSK3B isoform 2 (UniProt P49841) | inactive: 0.013 | inactive: -0.027 | inactive: -0.002 | inactive: 0.058 | inactive: -0.1 | inactive: -0.001 | inactive: -0.004 | inactive: 0.004 | inactive: 0.012 | inactive: 0.2 | inactive: -0.007 | inactive: 0.001 | inactive: -0.015 | inactive: 0.059 | inactive: -0.019 | inactive: -0.003 | inactive: 0.03 | – | – | –
3 | GTF2E1 (UniProt P29083) | inactive: -0.267 | active: -0.567 | inactive: 0.096 | inactive: -0.015 | inactive: 0.023 | inactive: 0.072 | inactive: -0.034 | inactive: -0.084 | inactive: -0.026 | inactive: -0.11 | inactive: 0.064 | inactive: 0 | inactive: -0.272 | inactive: -0.126 | inactive: -0.047 | inactive: 0.199 | inactive: -0.099 | – | – | –
4 | H2AFX (UniProt P16104) | inactive: 0.002 | inactive: 0.214 | inactive: -0.096 | inactive: -0.237 | inactive: 0.279 | inactive: -0.213 | inactive: 0.501 | inactive: 0.082 | inactive: -0.123 | inactive: 0.081 | inactive: 0.025 | inactive: -0.003 | inactive: 0.53 | inactive: 0.347 | inactive: 0.089 | inactive: -0.013 | inactive: 0.233 | – | – | –
5 | GUK1 isoform 2 (UniProt Q16774) | inactive: -0.116 | inactive: 0.081 | inactive: 0.097 | inactive: 0.12 | inactive: -0.167 | inactive: 0.049 | inactive: 0 | inactive: 0.071 | inactive: 0.001 | inactive: -0.223 | inactive: 0.064 | inactive: 0.027 | inactive: -0.162 | inactive: 0.175 | inactive: 0.026 | inactive: -0.079 | inactive: 0 | – | – | –
6 | GTF2B (UniProt Q00403) | inactive: -0.076 | active: -0.323 | inactive: 0.091 | inactive: 0.096 | inactive: -0.015 | inactive: 0.147 | inactive: -0.002 | inactive: -0.193 | inactive: -0.155 | inactive: -0.103 | inactive: 0.135 | inactive: -0.013 | inactive: -0.144 | inactive: -0.017 | inactive: 0.026 | inactive: 0.023 | inactive: -0.01 | – | – | –
7 | HEATR5B (UniProt Q9P2D3) | inactive: -0.053 | inactive: -0.19 | inactive: 0.083 | inactive: -0.058 | inactive: 0.018 | inactive: -0.009 | inactive: -0.017 | inactive: -0.015 | inactive: 0.043 | inactive: 0.008 | inactive: 0.016 | inactive: 0.022 | inactive: -0.099 | inactive: 0.028 | inactive: 0.015 | inactive: 0.041 | inactive: -0.006 | – | – | –
8 | HAX1 (UniProt O00165) | inactive: -0.087 | active: -0.393 | inactive: -0.011 | inactive: -0.018 | inactive: 0.084 | inactive: 0.05 | inactive: 0.012 | active: -0.584 | inactive: -0.067 | inactive: -0.106 | inactive: 0.015 | inactive: -0.14 | inactive: -0.008 | inactive: 0.082 | inactive: 0.051 | inactive: 0.045 | inactive: -0.013 | – | – | –
9 | HEXB (UniProt P07686) | active: -0.426 | active: -0.396 | inactive: -0.013 | inactive: -0.006 | inactive: 0.019 | inactive: 0 | inactive: -0.047 | active: -0.563 | inactive: 0 | inactive: 0.029 | inactive: -0.101 | inactive: 0.017 | inactive: -0.002 | inactive: -0.078 | inactive: -0.033 | inactive: 0.01 | inactive: -0.001 | – | – | –
10 | GTF2E2 (UniProt P29084) | inactive: -0.11 | active: -0.265 | inactive: 0.105 | inactive: 0.099 | inactive: 0.001 | inactive: 0.069 | inactive: 0.027 | inactive: -0.103 | inactive: -0.103 | inactive: -0.163 | inactive: 0.054 | inactive: 0.056 | inactive: -0.085 | inactive: 0.03 | inactive: 0.025 | inactive: 0.145 | inactive: -0.035 | – | – | –
11 | HEXA (UniProt P06865) | active: -0.423 | active: -0.479 | inactive: -0.028 | inactive: -0.012 | inactive: -0.002 | inactive: -0.021 | inactive: -0.02 | active: -0.63 | inactive: 0.031 | inactive: 0.098 | inactive: -0.145 | inactive: -0.012 | inactive: -0.008 | inactive: -0.07 | inactive: -0.018 | inactive: 0.003 | inactive: 0.016 | – | – | –
12 | GTF3A (UniProt Q92664) | inactive: -0.128 | inactive: -0.028 | inactive: 0.074 | inactive: -0.101 | inactive: -0.263 | inactive: 0.049 | inactive: 0.016 | active: -0.447 | inactive: 0.019 | inactive: -0.008 | inactive: -0.072 | inactive: -0.03 | inactive: -0.18 | inactive: 0.206 | inactive: -0.005 | inactive: -0.138 | inactive: 0 | – | – | –
13 | HAL (UniProt P42357) | inactive: 0.28 | inactive: -0.049 | inactive: 0.025 | inactive: 0.417 | – | inactive: 1.06 | inactive: 0.635 | – | inactive: -0.393 | inactive: -0.059 | inactive: 0.093 | – | inactive: -0.003 | inactive: -0.137 | inactive: 0 | inactive: -0.209 | inactive: -0.135 | inactive: -0.24 | – | –
14 | GUF1 (UniProt Q8N442) | inactive: 0.031 | inactive: -0.164 | inactive: 0.002 | – | inactive: -0.02 | inactive: 0.035 | inactive: 0.25 | inactive: -0.025 | inactive: 0.089 | inactive: -0.102 | inactive: -0.034 | inactive: -0.026 | inactive: -0.205 | inactive: -0.003 | inactive: -0.144 | inactive: -0.04 | inactive: 0.004 | – | inactive: 0.088 | –
15 | GSKIP (UniProt Q9P0R6) | inactive: 0.112 | inactive: -0.023 | inactive: -0.1 | – | inactive: -0.078 | inactive: -0.06 | inactive: -0.076 | inactive: 0.162 | inactive: -0.05 | – | inactive: 0.008 | inactive: 0.025 | inactive: 0.13 | inactive: 0.055 | inactive: -0.02 | inactive: -0.095 | inactive: 0.027 | inactive: 0.167 | inactive: 0.005 | inactive: -0.048
16 | HELZ (UniProt P42694) | inactive: 0.11 | inactive: -0.128 | inactive: 0.075 | – | inactive: 0.041 | inactive: -0.138 | inactive: 0.238 | inactive: 0.02 | inactive: -0.095 | inactive: -0.18 | – | inactive: 0.087 | inactive: -0.161 | inactive: 0.14 | inactive: -0.017 | inactive: 0.006 | inactive: 0.136 | inactive: -0.054 | inactive: -0.114 | inactive: -0.122
17 | HBA1 (UniProt P69905) | inactive: 0.049 | inactive: -0.059 | inactive: -0.038 | inactive: 0.316 | inactive: -0.076 | inactive: 0.012 | inactive: -0.044 | inactive: 0.153 | inactive: -0.017 | inactive: 0.036 | inactive: 0.035 | inactive: -0.01 | inactive: -0.014 | inactive: -0.036 | inactive: 0.011 | inactive: -0.043 | inactive: -0.034 | – | – | –
18 | GSTT1 (UniProt P30711) | inactive: 0.02 | inactive: -0.057 | inactive: -0.038 | inactive: 0.203 | inactive: 0.019 | inactive: -0.034 | inactive: -0.058 | inactive: -0.002 | inactive: -0.011 | – | inactive: 0.015 | inactive: -0.029 | inactive: -0.027 | inactive: 0.028 | inactive: 0 | inactive: 0.023 | inactive: -0.062 | – | – | –

Fetched one by one from above (2):
Row | Target | log2 fold change [1] | log2 fold change [2] | log2 fold change [3] | log2 fold change [4] | log2 fold change [5] | log2 fold change [6] | log2 fold change [7] | log2 fold change [8] | log2 fold change [9] | log2 fold change [10] | log2 fold change [11] | log2 fold change [12] | log2 fold change [13] | log2 fold change [14] | log2 fold change [15] | log2 fold change [16] | log2 fold change [17] | log2 fold change [18] | log2 fold change [19] | log2 fold change [20]
17 | HBA1 (UniProt P69905) | inactive: 0.049 | inactive: -0.059 | inactive: -0.038 | inactive: 0.316 | inactive: -0.076 | inactive: 0.012 | inactive: -0.044 | inactive: 0.153 | inactive: -0.017 | inactive: 0.036 | inactive: 0.035 | inactive: -0.01 | inactive: -0.014 | inactive: -0.036 | inactive: 0.011 | inactive: -0.043 | inactive: -0.034 | – | – | –
15 | GSKIP (UniProt Q9P0R6) | inactive: 0.112 | inactive: -0.023 | inactive: -0.1 | – | inactive: -0.078 | inactive: -0.06 | inactive: -0.076 | inactive: 0.162 | inactive: -0.05 | – | inactive: 0.008 | inactive: 0.025 | inactive: 0.13 | inactive: 0.055 | inactive: -0.02 | inactive: -0.095 | inactive: 0.027 | inactive: 0.167 | inactive: 0.005 | inactive: -0.048
